Experimental data published in PMC5806898.
These are yes or no findings as the source states them, for the method shown. Binding seen in cells or lysates may run through a third protein. Where a sequence is shown, tags or fusion partners need not be part of it.

Chains of the proteins cited; added tags and fusions are not shown. Residues count along the entry.
UniProt O43493, residues 22-437: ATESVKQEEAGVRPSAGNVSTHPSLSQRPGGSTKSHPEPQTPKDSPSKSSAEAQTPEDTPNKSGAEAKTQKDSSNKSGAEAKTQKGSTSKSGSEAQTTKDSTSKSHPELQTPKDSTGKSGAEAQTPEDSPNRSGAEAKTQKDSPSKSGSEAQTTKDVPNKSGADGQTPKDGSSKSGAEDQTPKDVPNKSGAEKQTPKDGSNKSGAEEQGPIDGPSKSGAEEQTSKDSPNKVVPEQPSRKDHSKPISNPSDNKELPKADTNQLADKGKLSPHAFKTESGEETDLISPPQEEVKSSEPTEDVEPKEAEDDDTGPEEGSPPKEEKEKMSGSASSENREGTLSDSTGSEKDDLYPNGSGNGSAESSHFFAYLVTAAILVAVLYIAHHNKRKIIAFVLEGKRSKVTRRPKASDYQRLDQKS

B1: AP-5 ζ subunit (protein, UniProt O43299 1-807)
chain: MFSAGAESLLHQAREIQDEELKKFCSRICKLLQAEDLGPDTLDSLQRLFLIISATKYSRRLEKTCVDLLQATLGLPACPEQLQVLCAAILREMSPSDSLSLAWDHTQNSRQLSLVASVLLAQGDRNEEVRAVGQGVLRALESRQPEGPSLRHLLPVMAKVVVLSPGTLQEDQATLLSKRLVDWLRYASLQQGLPHSGGFFSTPRARQPGPVTEVDGAVATDFFTVLSSGHRFTDDQWLNVQAFSMLRAWLLHSGPEGPGTLDTDDRSEQEGSTLSVISATSSAGRLLPPRERLREVAFEYCQRLIEQSNRRALRKGDSDLQKACLVEAVLVLDVLCRQDPSFLYRSLSCLKALHGRVRGDPASVRVLLPLAHFFLSHGEAAAVDSEAVYQHLFTRIPVEQFHSPMLAFEFIQFCRDNLHLFSGHLSTLRLSFPNLFKFLAWNSPPLTSEFVALLPALVDAGTALEMLHALLDLPCLTAVLDLQLRSAPAASERPLWDTSLRAPSCLEAFRDPQFQGLFQYLLRPKASGATERLAPLHQLLQPMAGCARVAQCAQAVPTLLQAFFSAVTQVADGSLINQLALLLLGRSDSLYPAPGYAAGVHSVLSSQFLALCTLKPSLVVELARDLLEFLGSVNGLCSRASLVTSVVWAIGEYLSVTYDRRCTVEQINKFFEALEALLFEVTQCRPSAALPRCPPQVVTVLMTTLTKLASRSQDLIPRASLLLSKMRTLAHSPATSSTHSEEGAEAIRTRATELLTLLKMPSVAQFVLTPSTEVCSPRYHRDANTALPLALRTVSRLVEREAGLMPG

Experiments:
[1] = target: T1, GST followed by the N-terminal 709 residues of SPG15 (UniProt Q68DK2); assay: pull-down; GST_15N1–709 as bait in SH-SY5Y cell lysate (PBS with 0.5% Triton X-100, pH 7.4; 2.5 mg/ml protein, 50 ug bait for every 4 ml), recovered with glutathione Sepharose 4B; western blot, bands quantified with IMAGEJ; only the target purified
T1 sequence: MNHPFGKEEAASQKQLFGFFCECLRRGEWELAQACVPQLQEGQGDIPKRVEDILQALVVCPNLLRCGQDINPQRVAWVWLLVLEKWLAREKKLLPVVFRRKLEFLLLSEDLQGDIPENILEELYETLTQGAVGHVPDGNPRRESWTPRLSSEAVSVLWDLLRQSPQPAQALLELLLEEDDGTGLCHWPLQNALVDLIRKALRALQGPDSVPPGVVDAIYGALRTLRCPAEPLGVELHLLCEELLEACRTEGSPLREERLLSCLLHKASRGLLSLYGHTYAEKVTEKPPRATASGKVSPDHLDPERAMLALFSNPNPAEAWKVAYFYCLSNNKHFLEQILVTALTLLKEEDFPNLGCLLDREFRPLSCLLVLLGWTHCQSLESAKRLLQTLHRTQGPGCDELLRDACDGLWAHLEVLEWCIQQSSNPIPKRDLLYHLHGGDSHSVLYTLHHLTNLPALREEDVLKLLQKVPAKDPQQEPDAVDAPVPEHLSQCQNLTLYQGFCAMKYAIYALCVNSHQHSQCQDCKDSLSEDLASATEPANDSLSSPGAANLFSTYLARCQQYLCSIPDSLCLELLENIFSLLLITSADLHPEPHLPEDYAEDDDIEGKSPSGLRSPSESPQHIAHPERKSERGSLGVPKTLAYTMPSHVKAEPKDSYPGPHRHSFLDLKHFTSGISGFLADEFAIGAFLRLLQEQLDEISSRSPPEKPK

[2] = target: T1, GST followed by the N-terminal 709 residues of SPG15; assay: pull-down; GST_15N1–709 as bait in HeLa cell lysate (PBS with 0.5% Triton X-100, pH 7.4; 2.5 mg/ml protein, 50 ug bait for every 4 ml), recovered with glutathione Sepharose 4B; western blot, bands quantified with IMAGEJ; only the target purified

| Molecule | binding [1] | binding [2] |
| --- | --- | --- |
| TGN46 (from UniProt O43493 22-437) | no binding | no binding |
| B1 | no binding | no binding |
